Experiment [1] deals with Lymphoid enhancer-binding factor 1 (LEF1), endogenous (human (endogenous in CAL-27 and SCC-9)) (UniProt Q9UJU2). Put plainly: co-IP; endogenous proteins; whole-cell lysates of CAL-27 and SCC-9; IP with antibodies against LEF1, KDM4A or N-CoR on Dynabeads Protein G, 4 °C; lysis buffer 50 mM Tris-HCl pH 7.4, 150 mM NaCl, 2 mM EDTA, 0.3% NP-40; western blot; IgG as negative control. In general terms: A western blot detects proteins with antibodies after separation by electrophoresis.

Amino acid sequences for entries named in this document (tags omitted).
UniProt Q9UJU2: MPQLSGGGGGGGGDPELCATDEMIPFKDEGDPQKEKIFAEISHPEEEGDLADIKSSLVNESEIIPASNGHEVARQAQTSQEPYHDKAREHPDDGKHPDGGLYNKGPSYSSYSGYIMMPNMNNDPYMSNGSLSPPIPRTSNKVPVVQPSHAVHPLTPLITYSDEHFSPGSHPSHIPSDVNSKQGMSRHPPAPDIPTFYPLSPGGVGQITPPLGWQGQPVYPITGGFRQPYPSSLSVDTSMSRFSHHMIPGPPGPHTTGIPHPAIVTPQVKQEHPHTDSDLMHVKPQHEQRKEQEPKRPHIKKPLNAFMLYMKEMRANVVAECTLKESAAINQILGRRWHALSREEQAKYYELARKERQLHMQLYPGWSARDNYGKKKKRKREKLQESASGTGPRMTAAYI

Experiment [2] deals with Flag-tagged LEF1 (human (cDNA from CAL 27 cells)) (UniProt Q9UJU2). Put plainly: co-IP; Flag- and EGFP-tagged proteins overexpressed together in HEK293T; whole-cell lysates; IP with antibodies against Flag and blot against EGFP (Fig. 2E, 2F); IgG or pCMV6 plasmid as negative control.
Experiment [3] concerns the target GST-fused LEF1 (human (cDNA from CAL 27 cells)) (UniProt Q9UJU2). Put plainly: pull-down; GST-fusion protein (~10 μg, from E. coli BL21 lysate; no purification before mixing is described) mixed with 3-10 μl in vitro transcription/translation product (rabbit reticulocyte lysate) in 0.8% BSA in PBS with protease inhibitor; glutathione-agarose beads, 4 °C, 2 h; western blot.

Results are given in words; binding and its absence hold for the method and conditions named. In cells and extracts the contact can be indirect. Some binding calls cover weakened binding; strength is not graded here. For part of these data: Tags and fused reporters may be left off the sequences shown.

B1: Lysine-specific demethylase 4A (KDM4A), endogenous (protein, UniProt O75164 1-1064)
chain: MASESETLNPSARIMTFYPTMEEFRNFSRYIAYIESQGAHRAGLAKVVPPKEWKPRASYDDIDDLVIPAPIQQLVTGQSGLFTQYNIQKKAMTVREFRKIANSDKYCTPRYSEFEELERKYWKNLTFNPPIYGADVNGTLYEKHVDEWNIGRLRTILDLVEKESGITIEGVNTPYLYFGMWKTSFAWHTEDMDLYSINYLHFGEPKSWYSVPPEHGKRLERLAKGFFPGSAQSCEAFLRHKMTLISPLMLKKYGIPFDKVTQEAGEFMITFPYGYHAGFNHGFNCAESTNFATRRWIEYGKQAVLCSCRKDMVKISMDVFVRKFQPERYKLWKAGKDNTVIDHTLPTPEAAEFLKESELPPRAGNEEECPEEDMEGVEDGEEGDLKTSLAKHRIGTKRHRVCLEIPQEVSQSELFPKEDLSSEQYEMTECPAALAPVRPTHSSVRQVEDGLTFPDYSDSTEVKFEELKNVKLEEEDEEEEQAAAALDLSVNPASVGGRLVFSGSKKKSSSSLGSGSSRDSISSDSETSEPLSCRAQGQTGVLTVHSYAKGDGRVTVGEPCTRKKGSAARSFSERELAEVADEYMFSLEENKKSKGRRQPLSKLPRHHPLVLQECVSDDETSEQLTPEEEAEETEAWAKPLSQLWQNRPPNFEAEKEFNETMAQQAPHCAVCMIFQTYHQVEFGGFNQNCGNASDLAPQKQRTKPLIPEMCFTSTGCSTDINLSTPYLEEDGTSILVSCKKCSVRVHASCYGVPPAKASEDWMCSRCSANALEEDCCLCSLRGGALQRANDDRWVHVSCAVAILEARFVNIAERSPVDVSKIPLPRFKLKCIFCKKRRKRTAGCCVQCSHGRCPTAFHVSCAQAAGVMMQPDDWPFVVFITCFRHKIPNLERAKGALQSITAGQKVISKHKNGRFYQCEVVRLTTETFYEVNFDDGSFSDNLYPEDIVSQDCLQFGPPAEGEVVQVRWTDGQVYGAKFVASHPIQMYQVEFEDGSQLVVKRDDVYTLDEELPKRVKSRLSVASDMRFNEIFTEKEVKQEKKRQRVINSRYREDYIEPALYRAIME
As for B1, in experiment [1], the binding entry is reported as “binds”.

B2: EGFP-tagged KDM4A (protein, UniProt O75164 1-1064)
chain: MASESETLNPSARIMTFYPTMEEFRNFSRYIAYIESQGAHRAGLAKVVPPKEWKPRASYDDIDDLVIPAPIQQLVTGQSGLFTQYNIQKKAMTVREFRKIANSDKYCTPRYSEFEELERKYWKNLTFNPPIYGADVNGTLYEKHVDEWNIGRLRTILDLVEKESGITIEGVNTPYLYFGMWKTSFAWHTEDMDLYSINYLHFGEPKSWYSVPPEHGKRLERLAKGFFPGSAQSCEAFLRHKMTLISPLMLKKYGIPFDKVTQEAGEFMITFPYGYHAGFNHGFNCAESTNFATRRWIEYGKQAVLCSCRKDMVKISMDVFVRKFQPERYKLWKAGKDNTVIDHTLPTPEAAEFLKESELPPRAGNEEECPEEDMEGVEDGEEGDLKTSLAKHRIGTKRHRVCLEIPQEVSQSELFPKEDLSSEQYEMTECPAALAPVRPTHSSVRQVEDGLTFPDYSDSTEVKFEELKNVKLEEEDEEEEQAAAALDLSVNPASVGGRLVFSGSKKKSSSSLGSGSSRDSISSDSETSEPLSCRAQGQTGVLTVHSYAKGDGRVTVGEPCTRKKGSAARSFSERELAEVADEYMFSLEENKKSKGRRQPLSKLPRHHPLVLQECVSDDETSEQLTPEEEAEETEAWAKPLSQLWQNRPPNFEAEKEFNETMAQQAPHCAVCMIFQTYHQVEFGGFNQNCGNASDLAPQKQRTKPLIPEMCFTSTGCSTDINLSTPYLEEDGTSILVSCKKCSVRVHASCYGVPPAKASEDWMCSRCSANALEEDCCLCSLRGGALQRANDDRWVHVSCAVAILEARFVNIAERSPVDVSKIPLPRFKLKCIFCKKRRKRTAGCCVQCSHGRCPTAFHVSCAQAAGVMMQPDDWPFVVFITCFRHKIPNLERAKGALQSITAGQKVISKHKNGRFYQCEVVRLTTETFYEVNFDDGSFSDNLYPEDIVSQDCLQFGPPAEGEVVQVRWTDGQVYGAKFVASHPIQMYQVEFEDGSQLVVKRDDVYTLDEELPKRVKSRLSVASDMRFNEIFTEKEVKQEKKRQRVINSRYREDYIEPALYRAIME
Turning to B2, in experiment [2], the binding entry is given as “binds”.

B3: in vitro-transcribed/translated KDM4A (protein, UniProt O75164 1-1064)
chain: MASESETLNPSARIMTFYPTMEEFRNFSRYIAYIESQGAHRAGLAKVVPPKEWKPRASYDDIDDLVIPAPIQQLVTGQSGLFTQYNIQKKAMTVREFRKIANSDKYCTPRYSEFEELERKYWKNLTFNPPIYGADVNGTLYEKHVDEWNIGRLRTILDLVEKESGITIEGVNTPYLYFGMWKTSFAWHTEDMDLYSINYLHFGEPKSWYSVPPEHGKRLERLAKGFFPGSAQSCEAFLRHKMTLISPLMLKKYGIPFDKVTQEAGEFMITFPYGYHAGFNHGFNCAESTNFATRRWIEYGKQAVLCSCRKDMVKISMDVFVRKFQPERYKLWKAGKDNTVIDHTLPTPEAAEFLKESELPPRAGNEEECPEEDMEGVEDGEEGDLKTSLAKHRIGTKRHRVCLEIPQEVSQSELFPKEDLSSEQYEMTECPAALAPVRPTHSSVRQVEDGLTFPDYSDSTEVKFEELKNVKLEEEDEEEEQAAAALDLSVNPASVGGRLVFSGSKKKSSSSLGSGSSRDSISSDSETSEPLSCRAQGQTGVLTVHSYAKGDGRVTVGEPCTRKKGSAARSFSERELAEVADEYMFSLEENKKSKGRRQPLSKLPRHHPLVLQECVSDDETSEQLTPEEEAEETEAWAKPLSQLWQNRPPNFEAEKEFNETMAQQAPHCAVCMIFQTYHQVEFGGFNQNCGNASDLAPQKQRTKPLIPEMCFTSTGCSTDINLSTPYLEEDGTSILVSCKKCSVRVHASCYGVPPAKASEDWMCSRCSANALEEDCCLCSLRGGALQRANDDRWVHVSCAVAILEARFVNIAERSPVDVSKIPLPRFKLKCIFCKKRRKRTAGCCVQCSHGRCPTAFHVSCAQAAGVMMQPDDWPFVVFITCFRHKIPNLERAKGALQSITAGQKVISKHKNGRFYQCEVVRLTTETFYEVNFDDGSFSDNLYPEDIVSQDCLQFGPPAEGEVVQVRWTDGQVYGAKFVASHPIQMYQVEFEDGSQLVVKRDDVYTLDEELPKRVKSRLSVASDMRFNEIFTEKEVKQEKKRQRVINSRYREDYIEPALYRAIME
In the case of B3, the binding result in experiment [3] is reported as “binds”.

The values above are taken from article PMC10409759.
